These are yes or no findings as the source states them, for the method shown. In cells and extracts the contact can be indirect. Tags and fused reporters may be left off the sequences shown.
Target: T1, GST-Gal80 (full-length) (S. cerevisiae) (UniProt P04387)
T1 sequence: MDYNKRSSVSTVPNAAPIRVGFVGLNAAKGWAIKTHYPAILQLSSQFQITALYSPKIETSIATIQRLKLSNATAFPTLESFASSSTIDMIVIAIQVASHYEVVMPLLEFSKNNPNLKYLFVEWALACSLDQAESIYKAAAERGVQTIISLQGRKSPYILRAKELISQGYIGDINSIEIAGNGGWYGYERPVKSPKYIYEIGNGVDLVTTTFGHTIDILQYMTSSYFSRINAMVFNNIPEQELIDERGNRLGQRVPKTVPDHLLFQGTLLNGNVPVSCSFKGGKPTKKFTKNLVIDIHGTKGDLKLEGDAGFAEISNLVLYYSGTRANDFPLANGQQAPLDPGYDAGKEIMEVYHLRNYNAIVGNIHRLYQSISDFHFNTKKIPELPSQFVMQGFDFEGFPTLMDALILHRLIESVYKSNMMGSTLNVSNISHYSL
Experiment: pull-down; GST-Gal80 (full-length) immobilised on GSH sepharose, incubated with yeast total protein extract containing HA3-Sin3; washing of intermediary stringency; elution with 10 mM free GSH; SDS-PAGE and blot with anti-HA-peroxidase conjugate; only the target purified

Amino acid sequences for entries named in this document (tags omitted).
UniProt P22579: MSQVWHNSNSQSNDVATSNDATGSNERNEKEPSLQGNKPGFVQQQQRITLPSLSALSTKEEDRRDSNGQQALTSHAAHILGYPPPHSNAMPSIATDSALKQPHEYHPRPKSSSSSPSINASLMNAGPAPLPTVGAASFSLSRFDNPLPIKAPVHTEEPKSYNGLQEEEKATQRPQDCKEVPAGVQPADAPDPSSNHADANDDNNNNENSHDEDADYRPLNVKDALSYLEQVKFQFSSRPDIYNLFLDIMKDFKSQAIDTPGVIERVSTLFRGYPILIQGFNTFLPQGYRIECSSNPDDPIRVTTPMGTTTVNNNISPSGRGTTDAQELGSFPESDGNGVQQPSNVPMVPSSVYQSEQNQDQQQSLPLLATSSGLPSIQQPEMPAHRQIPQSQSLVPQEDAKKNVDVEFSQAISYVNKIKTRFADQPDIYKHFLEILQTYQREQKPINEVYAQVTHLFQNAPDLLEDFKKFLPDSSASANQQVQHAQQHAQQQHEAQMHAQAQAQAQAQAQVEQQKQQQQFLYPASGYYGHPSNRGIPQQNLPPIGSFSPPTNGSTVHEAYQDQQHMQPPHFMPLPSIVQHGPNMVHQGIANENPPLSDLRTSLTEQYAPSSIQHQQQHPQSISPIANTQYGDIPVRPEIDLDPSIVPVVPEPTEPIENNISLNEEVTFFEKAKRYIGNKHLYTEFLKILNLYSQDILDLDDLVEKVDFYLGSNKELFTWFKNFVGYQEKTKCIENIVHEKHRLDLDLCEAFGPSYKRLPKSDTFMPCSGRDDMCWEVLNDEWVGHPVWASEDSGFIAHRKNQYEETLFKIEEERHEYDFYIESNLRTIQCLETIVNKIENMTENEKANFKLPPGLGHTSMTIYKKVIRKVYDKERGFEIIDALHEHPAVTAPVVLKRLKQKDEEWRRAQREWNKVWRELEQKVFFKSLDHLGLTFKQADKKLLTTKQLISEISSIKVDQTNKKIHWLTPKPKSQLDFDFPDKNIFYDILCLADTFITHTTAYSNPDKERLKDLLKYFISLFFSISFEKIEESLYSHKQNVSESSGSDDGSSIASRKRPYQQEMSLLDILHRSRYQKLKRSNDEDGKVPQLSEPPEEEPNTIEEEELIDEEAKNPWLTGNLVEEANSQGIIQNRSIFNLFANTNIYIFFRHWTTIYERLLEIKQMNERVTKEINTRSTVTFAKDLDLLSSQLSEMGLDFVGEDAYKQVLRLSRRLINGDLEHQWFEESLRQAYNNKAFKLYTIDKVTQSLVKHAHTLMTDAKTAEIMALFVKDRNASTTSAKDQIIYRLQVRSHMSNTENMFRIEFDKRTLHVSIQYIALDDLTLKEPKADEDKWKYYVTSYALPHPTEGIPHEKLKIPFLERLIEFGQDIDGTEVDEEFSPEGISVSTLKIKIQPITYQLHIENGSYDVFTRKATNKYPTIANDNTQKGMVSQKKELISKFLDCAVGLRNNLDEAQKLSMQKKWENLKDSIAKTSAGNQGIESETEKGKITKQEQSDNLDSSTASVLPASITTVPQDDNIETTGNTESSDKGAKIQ

binding: no binding
Substance: HA3-tagged Sin3 (full-length) (from UniProt P22579 1-1536)

From paper PMC8801411
